These are yes or no findings as the source states them, for the method shown. Some results given as binding are weak or reduced against the parent protein; the word gives no strength.
Target: TIM-3 ECD (extracellular domain of T cell immunoglobulin and mucin domain 3 protein) (UniProt Q8TDQ0)
Assay: adsorption ELISA on TIM-3 ECD

The chains behind the UniProt entries cited, without tags or fusion partners. Residues count along the entry.
UniProt Q8TDQ0, residues 22-202: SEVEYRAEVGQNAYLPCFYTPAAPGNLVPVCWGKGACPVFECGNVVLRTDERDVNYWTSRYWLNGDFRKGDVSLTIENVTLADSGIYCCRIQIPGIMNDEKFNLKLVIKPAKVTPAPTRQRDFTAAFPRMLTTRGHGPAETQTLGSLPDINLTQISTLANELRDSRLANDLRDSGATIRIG

B1: TRL6061 (antibody, V domains shown)
VH: QVQLVESGGGVVQPGRSLRLSCAASGFMFSTSAMHWVRQTPGKGLEWLAVIWHDGSEKYYADSVKGRFSISRDNYRDTLYLQMNNLRVEDTAIYYCRGGDVYEIWGQGTMVAVSS
VL: DDIMLTQPPSVSVSPGQTARITCSGDAVAKRYVYWYQQKSGQAPVLVMYEDNKRPSGIPERFSGSSSGTKATLTITGALVEDEADYYCYSTDSSGNLGAFGGGSKLTVL
- binding: binds

Reference: patent US20180186880A1
